In patent US7696233B2, “Method for controlling particular insect pests by applying anthranilamide compounds” (E. I. du Pont de Nemours and Company, priority 2001, dated 2010):
Some of these results come from one statement about several compounds together.

Columns and labels:
Type in all cases: in vivo
[1] = test system: beet armyworm (Spodoptera exigua); assay: Test C: control of beet armyworm, foliar spray on corn; settings: sprayed at 50 ppm, visually rated after 6 days
[2] = test system: tobacco budworm (Heliothis virescens); assay: Test B: control of tobacco budworm, foliar spray on cotton; settings: sprayed at 50 ppm, visually rated after 6 days
[3] = test system: fall armyworm (Spodoptera frugiperda); assay: Test A: control of fall armyworm, foliar spray on corn; settings: sprayed at 50 ppm, visually assessed after 6 days

SMILES	feeding damage (excellent levels of plant protection) [1] [%]	feeding damage (excellent levels of plant protection) [2] [%]	feeding damage (excellent levels of plant protection) [3] [%]
CCC(C)NC(=O)c1cccc(C)c1NC(=O)c1cc(C(F)(F)F)nn1-c1ncccc1Cl (racemic) [Compound 307]	≤ 10	≤ 10	≤ 10
CCC(C)NC(=O)c1cccc(Cl)c1NC(=O)c1cc(C(F)(F)F)nn1-c1ncccc1Cl (racemic) [Compound 309]	≤ 10	≤ 10	≤ 10
Cc1cccc(C(=O)NC(C)C)c1NC(=O)c1cc(C#N)nn1-c1ncccc1Cl [Compound 93]	≤ 10	≤ 10	≤ 10
CC(C)(C)NC(=O)c1cccc(Cl)c1NC(=O)c1cc(C(F)(F)F)nn1-c1ncccc1Cl [Compound 169]	≤ 10	≤ 10	≤ 10
CC1(NC(=O)c2cccc(Cl)c2NC(=O)c2cc(C(F)(F)F)nn2-c2ncccc2Cl)CC1 [Compound 170]	≤ 10	≤ 10	≤ 10
COCC(C)NC(=O)c1cccc(C)c1NC(=O)c1cc(C(F)(F)F)nn1-c1ncccc1Cl (stereo not drawn) [Compound 178]	≤ 10	≤ 10	≤ 10
CSCC(C)NC(=O)c1cccc(C)c1NC(=O)c1cc(C(F)(F)F)nn1-c1ncccc1Cl (stereo not drawn) [Compound 179]	≤ 10	≤ 10	≤ 10
COCC(C)NC(=O)c1cccc(Cl)c1NC(=O)c1cc(C(F)(F)F)nn1-c1ncccc1Cl (stereo not drawn) [Compound 180]	≤ 10	≤ 10	≤ 10
CNC(=O)c1cccc(Cl)c1NC(=O)c1cc(C(F)(F)F)nn1-c1ncccc1Cl [Compound 198]	≤ 10	≤ 10	≤ 10
C#CCNC(=O)c1cccc(Cl)c1NC(=O)c1cc(C(F)(F)F)nn1-c1ncccc1Cl [Compound 199]	≤ 10	≤ 10	≤ 10
CCNC(=O)c1cccc(C)c1NC(=O)c1cc(C(F)(F)F)nn1-c1ncccc1Cl [Compound 201]	≤ 10	≤ 10	≤ 10
CC(C)NC(=O)c1cccc(Cl)c1NC(=O)c1cc(C#N)nn1-c1ncccc1Cl [Compound 218]	≤ 10	≤ 10	≤ 10
CC(C)(C)NC(=O)c1cccc(Cl)c1NC(=O)c1cc(C#N)nn1-c1ncccc1Cl [Compound 219]	≤ 10	≤ 10	≤ 10
CNC(=O)c1cccc(C)c1NC(=O)c1cc(C(F)(F)F)nn1-c1ccccc1F [Compound 233]	≤ 10	≤ 10	≤ 10
C#CCNC(=O)c1cc(Br)cc(C)c1NC(=O)c1cc(Br)nn1-c1ccccc1Cl [Compound 236]	≤ 10	≤ 10	≤ 10
CC(C)NC(=O)c1cccc(Cl)c1NC(=O)c1cc(C(F)(F)F)nn1-c1ncccc1Cl [Compound 238]	≤ 10	≤ 10	≤ 10

SMILES	feeding damage (excellent levels of plant protection) [1] [%]	feeding damage (excellent levels of plant protection) [2] [%]	feeding damage (excellent levels of plant protection) [3] [%]
Cc1cccc(C(=O)NC2CCC2)c1NC(=O)c1cc(C#N)nn1-c1ncccc1Cl [Compound 304]	≤ 10	≤ 10	–
CCSCCNC(=O)c1cccc(C)c1NC(=O)c1cc(C(F)(F)F)nn1-c1ncccc1Cl [Compound 344]	≤ 10	–	≤ 10
C=C(C)CNC(=O)c1cccc(C)c1NC(=O)c1cc(C(F)(F)F)nn1-c1ncccc1Cl [Compound 347]	≤ 10	–	≤ 10
Cc1cccc(C(=O)NCCO)c1NC(=O)c1cc(C(F)(F)F)nn1-c1ncccc1Cl [Compound 351]	≤ 10	–	≤ 10
Cc1cccc(C(=O)NC(C)CO)c1NC(=O)c1cc(C(F)(F)F)nn1-c1ncccc1Cl (stereo not drawn) [Compound 352]	≤ 10	–	≤ 10
Cc1cccc(C(=O)NC(C)(C)CO)c1NC(=O)c1cc(C(F)(F)F)nn1-c1ncccc1Cl [Compound 376]	≤ 10	–	≤ 10
CCOC(=O)CC(C)NC(=O)c1cc(Br)cc(Br)c1NC(=O)c1cc(Cl)nn1-c1ncccc1Cl (stereo not drawn) [Compound 614]	≤ 10	≤ 10	–
Cc1cc(Br)cc(C(=O)Nc2ccccn2)c1NC(=O)c1cc(C(F)(F)F)nn1-c1ncccc1Cl [Compound 615]	–	≤ 10	≤ 10
CSCC(C)NC(=O)c1cc([N+](=O)[O-])cc(C)c1NC(=O)c1cc(C(F)(F)F)nn1-c1ncccc1Cl (stereo not drawn) [Compound 649]	–	≤ 10	≤ 10
CCOC(=O)CN(C)C(=O)c1cc(Br)cc(C)c1NC(=O)c1cc(C(F)(F)F)nn1-c1ncccc1Cl [Compound 668]	–	≤ 10	≤ 10
CCOC(=O)CN(C)C(=O)c1cc(Cl)cc(Cl)c1NC(=O)c1cc(C(F)(F)F)nn1-c1ncccc1Cl [Compound 675]	–	≤ 10	≤ 10
CC(C)NC(=O)c1cc(Cl)cc(Cl)c1NC(=O)c1cc(OC(F)(F)Br)nn1-c1ncccc1Cl [Compound 716]	–	≤ 10	≤ 10
CNC(=O)c1cc(Cl)cc(Cl)c1NC(=O)c1cc(OC(F)(F)Br)nn1-c1ncccc1Cl [Compound 717]	–	≤ 10	≤ 10
CN(C)C(=O)c1cc(Cl)cc(Cl)c1NC(=O)c1cc(OC(F)(F)Br)nn1-c1ncccc1Cl [Compound 718]	–	≤ 10	≤ 10
CC(C)NC(=O)c1cc(Cl)cc(Cl)c1NC(=O)c1cc(OC(C)C)nn1-c1ncccc1Cl [Compound 741]	≤ 10	–	≤ 10
